# Primary screen of a compound library

The chains behind the UniProt entries cited, without tags or fusion partners. Residues count along the entry.
UniProt Q4DA54, 1-478: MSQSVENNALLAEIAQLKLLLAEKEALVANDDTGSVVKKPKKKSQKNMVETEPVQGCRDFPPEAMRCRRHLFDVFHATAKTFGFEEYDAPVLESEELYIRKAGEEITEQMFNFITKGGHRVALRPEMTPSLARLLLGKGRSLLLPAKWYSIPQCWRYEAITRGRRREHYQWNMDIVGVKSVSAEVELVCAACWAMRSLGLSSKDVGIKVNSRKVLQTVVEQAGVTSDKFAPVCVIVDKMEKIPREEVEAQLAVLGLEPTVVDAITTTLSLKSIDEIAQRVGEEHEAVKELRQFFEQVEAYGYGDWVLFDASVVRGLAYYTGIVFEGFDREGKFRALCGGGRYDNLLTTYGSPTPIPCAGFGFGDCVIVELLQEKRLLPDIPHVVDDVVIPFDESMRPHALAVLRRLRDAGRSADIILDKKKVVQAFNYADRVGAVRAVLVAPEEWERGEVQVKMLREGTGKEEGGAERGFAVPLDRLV
UniProt P9WNZ1, whole entry: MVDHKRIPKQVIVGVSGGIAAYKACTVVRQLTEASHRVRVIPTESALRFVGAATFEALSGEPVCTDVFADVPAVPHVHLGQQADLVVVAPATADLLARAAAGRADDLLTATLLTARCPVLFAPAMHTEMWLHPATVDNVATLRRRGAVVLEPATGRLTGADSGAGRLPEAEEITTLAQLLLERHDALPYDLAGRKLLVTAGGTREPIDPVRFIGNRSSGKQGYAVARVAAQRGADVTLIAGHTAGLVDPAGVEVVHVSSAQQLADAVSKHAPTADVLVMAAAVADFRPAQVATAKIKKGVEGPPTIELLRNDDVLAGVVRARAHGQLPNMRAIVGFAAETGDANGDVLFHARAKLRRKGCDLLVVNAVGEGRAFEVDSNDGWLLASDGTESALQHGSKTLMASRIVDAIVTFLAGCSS
UniProt A4I591, 1-473: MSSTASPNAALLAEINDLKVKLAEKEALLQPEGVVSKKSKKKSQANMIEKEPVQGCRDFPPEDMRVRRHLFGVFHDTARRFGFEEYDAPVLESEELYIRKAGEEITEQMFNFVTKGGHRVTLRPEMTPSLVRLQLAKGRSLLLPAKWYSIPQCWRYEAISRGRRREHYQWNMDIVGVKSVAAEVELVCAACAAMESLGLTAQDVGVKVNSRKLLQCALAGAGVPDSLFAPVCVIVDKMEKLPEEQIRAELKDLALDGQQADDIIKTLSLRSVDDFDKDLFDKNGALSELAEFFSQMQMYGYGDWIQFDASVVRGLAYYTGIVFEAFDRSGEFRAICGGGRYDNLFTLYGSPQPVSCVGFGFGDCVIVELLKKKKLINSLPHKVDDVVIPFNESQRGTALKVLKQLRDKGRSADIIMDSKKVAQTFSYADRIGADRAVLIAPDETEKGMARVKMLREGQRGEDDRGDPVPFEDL

Data taken from ChEMBL document CHEMBL3988442, “University of Dundee, Small-Polar-MMV Screening Library” (2021).

TcHisRS: 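Enzyme assay of histidyl-tRNA synthetase; the read-out is not stated. Target: Histidine-tRNA ligase, Trypanosoma cruzi CL Brener (UniProt Q4DA54). Tested at 30 µM. Higher reads as stronger inhibition (inferred: compounds with an IC50 in retests scored well above the rest). Of about 69,000 compounds tested this way, about 31 (0.045%) reached 50% or more in at least one test.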
Leishmania in macrophages: 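Cell assay of Leishmania donovani living inside macrophages; the read-out is not stated. Compounds at 30 µM. The record gives no direction; compounds that gave an IC50 in retests scored well above the rest, so higher reads as stronger inhibition. About 69,000 compounds were tested under these conditions; 1.5% (about 1,000) showed 50% or more at least once.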
Toxoplasma: 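Assay of Toxoplasma gondii numbers, read through their beta-galactosidase reporter with a colour substrate. Tested at 10 µM. Higher reads as fewer parasites (inferred from which compounds were picked for retests). About 67,000 compounds were tested under these conditions; 0.38% (about 260) showed 50% or more at least once.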
CoaBC: 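Enzyme assay of CoaBC with a phosphate dye (Biomol Green) read at 650 nm. Target: Coenzyme A biosynthesis protein CoaBC, Mycobacterium tuberculosis (UniProt P9WNZ1). Compounds at 30 µM. Higher reads as stronger inhibition, judged from the few compounds that gave an IC50. Most strong results did not repeat in a second test. Size under these conditions: about 67,000 compounds, about 40 of them at 50% or above in at least one test.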
LiHisRS: 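Enzyme assay of histidyl-tRNA synthetase; the read-out is not stated. Target: Histidine-tRNA ligase, Leishmania infantum (UniProt A4I591). Compounds at 30 µM. Higher reads as stronger inhibition (inferred: compounds with an IC50 in retests scored well above the rest). The assay is labelled LdHisRS but filed under L. infantum. Of about 69,000 compounds tested this way, about 410 (0.6%) reached 50% or more in at least one test.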

Values are the deposited “Percent Effect”, in %. How 0% and 100% were set is not recorded. Most values in the screen are low, and negative values occur. Compounds were drawn at random from those tested, without regard to their results. Two or more numbers in one place are separate tests of the same structure; such repeats can differ widely. A dash means the value is not listed here; it may have been measured.

| # | structure | TcHisRS | Leishmania in macrophages | Toxoplasma | CoaBC | LiHisRS |
|---|---|---|---|---|---|---|
| 1 | `c1ccc(CO[C@H]2C[C@@H]3CN(Cc4cncnc4)C[C@@H]3C2)cc1` | 1.493% | - | - | 2.19% | -3.158% |
| 2 | `Cc1nc(N2CCCC2)nc2c1CCN(C(=O)N(C)C)CC2` | 2.439% | -2.133% | -11.31% | 5.514% | 33.33% |
| 3 | `Cc1ccc2c(n1)N(CCn1cccn1)CCN(S(C)(=O)=O)C2.O=C(O)C(F)(F)F` | - | -8.955% | 20.13% | - | - |
| 4 | `Fc1cccc(N2CCOC3(CCCN(c4nncs4)C3)C2)c1` (configuration not stated) | 7.527% | 4.468% and -1.896% | -0.5643% | 3.579% | 22.12% |
| 5 | `CNc1cc(N2CCCC2CNCc2cccc(C(N)=O)c2)ncn1` (configuration not stated) | 3.139% | 7.731% | 10.4% | 3.553% | 22.35% |
| 6 | `Cc1nc(CC(=O)N(C)C2CCCN(CCc3ccccc3)C2)cs1` (configuration not stated) | 4.651% | -39.45% | 1.565% | -2.146% | 1.639% |
| 7 | `Cc1ccc(S(=O)(=O)c2ncccc2CN2CCN(C)CC2)cc1` | -19.3% | -11.84% | 7.987% | -1.263% | 5.263% |
| 8 | `O=C(CN1CCNC1=O)N1CCc2nnc(-c3ccccc3)n2CC1` | 9.036% | 41.51% | 2.693% | 2.317% | 6.593% |
| 9 | `O=C(CC1CCCC1)NCCn1nc2ccccn2c1=O` | 2.717% | -6.569% | 2.308% | -2.479% | 2.667% |
| 10 | `O=C(NCCN1CCOCC1)c1cc(Cl)c2c(c1)OCCCO2` | 2.326% | 10.12% | 7.014% | 5.579% | 14.75% |
| 11 | `Cc1cc(N2CCN(C(=O)c3cn(C)c4ccccc34)CC2)nc(C)n1` | 2.041% | 21.48% | -8.914% | 10.11% | 9.917% |
| 12 | `CCOC(C)c1nccn1Cc1c(C)noc1C` (configuration not stated) | -0.5181% | 31.85% | 7.422% | -1.823% | 7.865% |
| 13 | `CC(c1nc(C2CC2)no1)N1CCN(Cc2ccc(C#N)cc2)CC1` (configuration not stated) | 6.667% | -26.27% | 3.255% | 5.684% | 11.32% |
| 14 | `COc1cc2nc(C)n(CC(=O)NCCN(C)C)c(=O)c2cc1OC` | 6.024% | 0.3144% and -23.57% | 8.223% | 1.781% | 15.38% |
| 15 | `COCCNC(=O)C1CN(Cc2cccnc2)Cc2ccnn2C1` (configuration not stated) | 5.911% | - | - | 7.107% | 5.882% |
| 16 | `CCc1noc(CN(CCS(C)(=O)=O)C(C)(C)C)n1` | 1.293% | -6.468% | 8.652% | 1.648% | 21.52% |
| 17 | `CC(NC(=O)C1CCCC1)c1nc(-c2ccccc2)c[nH]1` (configuration not stated) | -0.4425% | 31.05% | 1.815% | 4.206% | 16.81% |
| 18 | `O=C(O)C(F)(F)F.[H][C@@]12CCN(Cc3ccccc3)C[C@]1([H])O[C@H](C(=O)NC1CC1)C2` | - | 14.48% | -7.033% | - | - |
| 19 | `Cc1ccc2c(c1)C1(CCN(S(C)(=O)=O)CC1)CN2C(=O)N(C)C` | 8.696% | -10.17% | -4.211% | -1.402% | 19.74% |
| 20 | `CNc1nc(N2CCN(Cc3ccsc3)C(CCO)C2)nc2c1CCC2` (configuration not stated) | 5.419% | 13.19% | 3.686% | -6.774% | -75% |
| 21 | `CCNC(=O)[C@@H]1C[C@H](NC(=O)c2cc(=O)[nH]c3ccc(C)cc23)CN1C` | 4.478% | 1.278% | -2.834% | 3.704% | 12.59% |
| 22 | `COc1ccc(CC(=O)N2CCCC(n3nc(C)cc3C)C2)cc1` (configuration not stated) | 2.286% | -2.591% | 16.62% | 4.724% | -3.39% |
| 23 | `Cc1c[nH]c(CN2CCN(C)C3(CCC(=O)N(CC4CC4)CC3)C2)n1` (configuration not stated) | 3.061% | 0.6729% | -4.649% | 4.242% | 14.52% |
| 24 | `CC(NC(=O)N(C)CCCOc1ccc(F)cc1)c1nncn1C` (configuration not stated) | 2.642% | 16.25% | 7.353% | -2.738% | 22.97% |
| 25 | `COCCOCC(=O)N1C[C@@H]2CC[C@H](Oc3ccccc3)[C@@H]2C1` | 11.94% | - | - | 5.109% | 26.32% |
| 26 | `Cc1ccccc1C(C#N)NC(=O)c1cccc2c1OCCO2` (configuration not stated) | -2.128% | 19.03% | -1.265% | 8.835% | 19.4% |
| 27 | `[H][C@@]12CCN(C(=O)N(C)C)[C@]1([H])CC[C@H](C(=O)NC)O2` | - | 18.58% | 1.456% | - | - |
| 28 | `CCn1c(CN2CCC(O)(c3ccc4c(c3)OCO4)CC2)cnc1SC.O=C(O)CC(O)(CC(=O)O)C(=O)O` | - | 19.9% | 10.92% | - | - |
| 29 | `CCc1cc(N(C)CCc2c(C)n[nH]c2C)ncn1` | 0% | -0.09593% | 3.846% | 4.562% | 16.13% |
| 30 | `CCn1ccc2cc(NC(=O)CC3CCCO3)ccc21` (configuration not stated) | 3.867% | 25.12% | 20.59% | 8.238% | 21.13% |
| 31 | `Cc1cnc(CC2COCCN(C(=O)c3cncnc3)C2)cn1` (configuration not stated) | 6.202% | 22.42% | -10.92% | 4.049% | 14.18% |
| 32 | `CCN(CC1CC1)C(=O)NCc1nnc2n1CCC2` | 0% | 15.52% | -15.52% | -1.347% | 15.96% |
| 33 | `Cc1ccccc1CN1CCN(C(C)c2nc(C3CC3)no2)CC1` (configuration not stated) | -1.425% | -7.795% | 1.903% | -15.01% | 3.419% |
| 34 | `Cc1ccc(CNc2ccccc2-n2ccc(C)n2)nc1` | 0% | -4.435% | 0% | 4.167% | 12.33% |
| 35 | `Cc1nc(CN(C)C(=O)Nc2cccc(COC(C)C)c2C)no1` | 10.16% | 13.8% | -1.935% | 3.043% | 8.901% |
| 36 | `Cc1cc(C)c2nc(CNCCNS(C)(=O)=O)cc(O)c2c1` | 6.14% | 23.47% | 4.66% | -3.822% | 20.97% |
| 37 | `Cc1ccc(C(=O)Nc2ccccc2N2CCCC2)n1C` | 0% | -5.836% | - | -3.281% | 2.174% |
| 38 | `CN(C)CCNC(=O)Cn1cnc2cc(NC(=O)C3CC3)ccc21` | 6.931% | 24.26% | -6.888% | -0.4819% | 9.89% |
| 39 | `O=C(O)C(F)(F)F.[H][C@@]12COC[C@]1(CNC(=O)c1ccco1)CN(Cc1scnc1C)C2` | - | -22.36% | -8.095% | - | - |
| 40 | `Cc1noc(C2CCCCN2C(=O)C2CCN(C(C)C)CC2)n1` (configuration not stated) | -1.571% | 34.93% | 1.671% | 8.848% | 2.151% |
| 41 | `CCOC(=O)CN1CC(c2nc(-c3ccsc3)no2)C1` | -0.4878% | - | - | -3.137% | 13.56% |
| 42 | `CCn1nc(C)c2ccn(CC(=O)NC3CC3)c(=O)c21` | 4.523% | 12.61% | -65.2% | 3.249% | 6.742% |
| 43 | `O=C(NCc1ccccn1)[C@@]12CCO[C@@H]1CCN(Cc1ccccn1)C2` | 13.76% | - | - | 2.222% | 17.27% |
| 44 | `NC(=O)c1cccc(C2CCN(c3ncccn3)CC2)n1` | 3.077% | 11.41% | - | 6.413% | 7.042% |
| 45 | `O=C(c1ccco1)N1CCC2(CCC(=O)N2Cc2ccccc2)CC1` | -18.45% | 18.97% | 4.253% | 8.366% | 19.23% |
| 46 | `COC(=O)CCNC(=O)c1nnn(-c2ccc(C)cc2)c1C1CC1` | 5.78% | -18.04% | -10.07% | 1.405% | 15.18% |
| 47 | `O=C(NCc1nncn1C1CC1)Nc1ccc(OC2CCC2)c(F)c1` | 5.319% | 12.58% | 4.088% | 1.085% | 9.375% |
| 48 | `[H][C@@]12CCN(C(=O)c3sccc3C)C[C@]1(c1nc(C)no1)CCO2` | - | 11.9% | -1.709% | - | - |
| 49 | `O=S1(=O)C[C@@H]2[C@H](C1)N(Cc1ccoc1)CCN2Cc1ccncc1` | 0% | - | - | 7.54% | 22.22% |
| 50 | `CCOC(C)c1nccn1Cc1cc(C)on1` (configuration not stated) | 2.591% | -32.77% | -8.748% | -1.562% | -1.124% |
| 51 | `CC(C)=CCN1CCN(Cc2nc3ccccc3[nH]2)[C@H]2CS(=O)(=O)C[C@H]21` | 4.348% | - | - | 7.477% | 35.53% |
| 52 | `CC(=O)N1Cc2nc(C(=O)NCCc3cccnc3)oc2C1` | 1.97% | 41.37% | -5.162% | 4.569% | -14.71% |
| 53 | `CCc1cnc(N2CCC3(CC2)CN(c2cccnc2)C(=O)CO3)nc1` | 2.762% | - | - | 5.656% | 0% |
| 54 | `CC(=O)N1CCC2(CCN(S(=O)(=O)c3ccccc3)CC2)C1` | 2.913% | -1.023% | 11.5% | 1.673% | -1.923% |
| 55 | `O=C(O)C(F)(F)F.O=C(O)C(F)(F)F.O=C(O)C(F)(F)F.[H][C@@]12OCCN(Cc3ccncc3)[C@@]1([H])CC[C@H]2OCCN1CCCC1` | - | 14.34% | 18.56% | - | - |